Publication PMC11990703

Target: OsCAF1A fused to an EYFP fragment (onion BiFC) (rice (Oryza sativa))
Assay: split reporter; BiFC; combinations of nEYFP- and cEYFP-fused proteins co-expressed in onion epidermal cells via particle bombardment

B1: OsRH8 fused to an EYFP fragment (onion BiFC) (protein, UniProt Q6H7S2 1-508)
chain: MDPRARYPPGIGNGRGGNPNYYNRGPPLQQQHNHHQQQQTSAPHHQQYVQRQPQQHHHHNHHQQHQQQQQQWLRRNQIAREAAGTDRNSEPKAVAQSPAVDGIDSSSQDWKAQLKLPPQDTRYRTEDVTATKGNEFEDYFLKRELLMGIYEKGFERPSPIQEESIPIALTGSDILARAKNGTGKTAAFCIPALEKIDQEKNAIQVVILVPTRELALQTSQVCKELGKHLKIQVMVTTGGTSLKDDIIRLYQPVHLLVGTPGRILDLTKKGICILKDCSMLIMDEADKLLSPEFQPSVEQLIRYLPASRQILMFSATFPVTVKEFKDKYLPKPYVINLMDELTLKGITQFYAFVEERQKVHCLNTLFSKLQINQSIIFCNSVNRVELLAKKITELGYSCFYIHAKMLQDHRNRVFHDFRNGACRNLVCTDLFTRGIDIQAVNVVINFDFPKTAETYLHRVGRSGRFGHLGLAVNLITYEDRFNLYRIEQELGTEIKPIPPQIDQAIYCQ
With B1 the binding was “binds”.

Results are given in words; binding and its absence hold for the method and conditions named. In cells and extracts the contact can be indirect. Binding can be weak; no strength is given. Where a sequence is shown, tags or fusion partners need not be part of it.
